Test results: patent US20080153872A1, “Bis-(Coumarin) Compounds With Anti-Inflammatory Activity” (priority 2005, published 2008)
Some of these results come from one statement about several compounds together.

What was measured:
[1] = target: T1, 5-lipoxygenase (Rattus norvegicus, UniProt P12527); assay: 5-Lipoxygenase, 5-LO, inhibition by comparison of LTB4 inhibition and Ca2+-induced degranulation inhibition; type: cell-based; settings: difference between LTB4 inhibition and Ca2+-induced degranulation inhibition 50% or higher at 10 μM
T1 construct: RBL-2H3 cells have a potent 5-lipoxygenase activity; endogenous in cells; host or cells: RBL-2H3
T1 sequence (P12527 1-673): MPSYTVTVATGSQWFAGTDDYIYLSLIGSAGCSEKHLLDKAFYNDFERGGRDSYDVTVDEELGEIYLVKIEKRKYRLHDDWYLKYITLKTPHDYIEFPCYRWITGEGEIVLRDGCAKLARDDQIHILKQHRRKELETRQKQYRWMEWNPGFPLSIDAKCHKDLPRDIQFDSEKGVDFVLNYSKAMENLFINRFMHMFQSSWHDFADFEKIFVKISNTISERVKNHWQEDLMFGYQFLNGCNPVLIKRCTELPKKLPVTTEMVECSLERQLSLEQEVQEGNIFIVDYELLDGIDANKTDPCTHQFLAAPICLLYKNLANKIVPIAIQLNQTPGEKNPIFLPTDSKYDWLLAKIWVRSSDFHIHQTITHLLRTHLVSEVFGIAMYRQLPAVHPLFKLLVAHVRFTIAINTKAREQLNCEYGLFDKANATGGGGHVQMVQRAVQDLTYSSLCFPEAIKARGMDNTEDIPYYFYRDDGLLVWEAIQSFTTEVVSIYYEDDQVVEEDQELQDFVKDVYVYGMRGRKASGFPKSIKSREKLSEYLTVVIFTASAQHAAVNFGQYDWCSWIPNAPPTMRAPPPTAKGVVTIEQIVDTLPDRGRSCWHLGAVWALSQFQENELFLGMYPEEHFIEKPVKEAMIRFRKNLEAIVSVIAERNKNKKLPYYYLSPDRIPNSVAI

[2] = test system: leukotriene B4 production; assay: Leukotriene B4 (LTB4) inhibition assay in A23187 stimulated RBL-2H3 cells; type: cell-based, rat; settings: 10 μM
[3] = test system: RBL-2H3 cell line; assay: Ca2+-induced RBL-2H3 mast cell degranulation (calcium ionophore A23187); type: cell-based, rat; settings: 10 μM concentration, RBL-2H3 cells

Row | Compound | 5-LO inhibitor by criterion [1] | inhibition of LTB4 production [2] | inhibition of Ca2+-induced degranulation by means of a calcium ionophore [3]
1 | CCc1cccc2c(O)c(C(C(C)=O)c3c(O)c4cccc(CC)c4oc3=O)c(=O)oc12 [Example 17] | considered as 5-LO inhibitors | significant inhibition | –
2 | CC(=O)C(c1c(O)c2c(C(C)C)ccc(C)c2oc1=O)c1c(O)c2c(C(C)C)ccc(C)c2oc1=O [Example 20] | considered as 5-LO inhibitors | significant inhibition | –
3 | CCOc1cccc(C(c2c(O)c3ccc(C)cc3oc2=O)c2c(O)c3ccc(C)cc3oc2=O)c1 [Example 166] | – | significant inhibition | significant inhibitory activity
4 | Cc1ccc2c(O)c(C(c3cccc(O)c3)c3c(O)c4ccc(C)cc4oc3=O)c(=O)oc2c1 [Example 167] | – | significant inhibition | significant inhibitory activity
5 | CSc1ccc(C(c2c(O)c3ccc(C)cc3oc2=O)c2c(O)c3ccc(C)cc3oc2=O)cc1 [Example 169] | – | significant inhibition | significant inhibitory activity
6 | Cc1ccc2c(O)c(C(c3cc(Br)cs3)c3c(O)c4ccc(C)cc4oc3=O)c(=O)oc2c1 [Example 170] | – | significant inhibition | significant inhibitory activity
7 | Cc1ccc2c(O)c(C(c3ccc(Cl)cc3)c3c(O)c4ccc(C)cc4oc3=O)c(=O)oc2c1 [Example 171] | – | significant inhibition | significant inhibitory activity
8 | Cc1ccc(C(c2c(O)c3ccc(C)cc3oc2=O)c2c(O)c3ccc(C)cc3oc2=O)cc1 [Example 174] | – | significant inhibition | significant inhibitory activity
9 | COc1ccc(C(c2c(O)c3cc(C)c(C)cc3oc2=O)c2c(O)c3cc(C)c(C)cc3oc2=O)cc1 [Example 177] | – | significant inhibition | significant inhibitory activity
10 | Cc1cc2oc(=O)c(C(c3cccc(Oc4ccccc4)c3)c3c(O)c4cc(C)c(C)cc4oc3=O)c(O)c2cc1C [Example 189] | – | significant inhibition | significant inhibitory activity
11 | CCc1ccc2oc(=O)c(C(c3ccc(OC)cc3)c3c(O)c4cc(CC)ccc4oc3=O)c(O)c2c1 [Example 225] | – | significant inhibition | significant inhibitory activity
12 | CCc1ccc2oc(=O)c(C(c3cnc4ccccc4c3)c3c(O)c4cc(CC)ccc4oc3=O)c(O)c2c1 [Example 226] | – | significant inhibition | significant inhibitory activity
13 | CCc1ccc2oc(=O)c(C(c3ccc4ccccc4n3)c3c(O)c4cc(CC)ccc4oc3=O)c(O)c2c1 [Example 228] | – | significant inhibition | significant inhibitory activity
14 | CCc1ccc2oc(=O)c(C(c3ccc4c(c3)CCO4)c3c(O)c4cc(CC)ccc4oc3=O)c(O)c2c1 [Example 233] | – | significant inhibition | significant inhibitory activity
15 | CCc1ccc2oc(=O)c(C(c3ccc4c(c3)OCCO4)c3c(O)c4cc(CC)ccc4oc3=O)c(O)c2c1 [Example 234] | – | significant inhibition | significant inhibitory activity
16 | CCc1ccc2oc(=O)c(C(c3ccccn3)c3c(O)c4cc(CC)ccc4oc3=O)c(O)c2c1 [Example 235] | – | significant inhibition | significant inhibitory activity
17 | CCOc1cccc(C(c2c(O)c3cc(CC)ccc3oc2=O)c2c(O)c3cc(CC)ccc3oc2=O)c1 [Example 237] | – | significant inhibition | significant inhibitory activity
18 | CCc1ccc2oc(=O)c(C(c3cccc(O)c3)c3c(O)c4cc(CC)ccc4oc3=O)c(O)c2c1 [Example 238] | – | significant inhibition | significant inhibitory activity

Row | Compound | 5-LO inhibitor by criterion [1] | inhibition of LTB4 production [2] | inhibition of Ca2+-induced degranulation by means of a calcium ionophore [3]
19 | CCc1ccc2oc(=O)c(C(c3ccc(SC)cc3)c3c(O)c4cc(CC)ccc4oc3=O)c(O)c2c1 [Example 241] | – | significant inhibition | significant inhibitory activity
20 | CCc1ccc2oc(=O)c(C(c3ccc(Cl)cc3)c3c(O)c4cc(CC)ccc4oc3=O)c(O)c2c1 [Example 243] | – | significant inhibition | significant inhibitory activity
21 | CCc1ccc2oc(=O)c(C(c3ccc(C)cc3)c3c(O)c4cc(CC)ccc4oc3=O)c(O)c2c1 [Example 246] | – | significant inhibition | significant inhibitory activity
22 | O=c1oc2ccc(F)cc2c(O)c1C(c1ccc(Oc2ccccc2)cc1)c1c(O)c2cc(F)ccc2oc1=O [Example 309] | – | significant inhibition | significant inhibitory activity
23 | COc1ccc(C(c2c(O)c3cc(F)ccc3oc2=O)c2c(O)c3cc(F)ccc3oc2=O)cc1Br [Example 314] | – | significant inhibition | significant inhibitory activity
24 | CCOc1cccc(C(c2c(O)c3cc(F)ccc3oc2=O)c2c(O)c3cc(F)ccc3oc2=O)c1 [Example 315] | – | significant inhibition | significant inhibitory activity
25 | O=c1oc2ccc(F)cc2c(O)c1C(c1cccc(Oc2ccccc2)c1)c1c(O)c2cc(F)ccc2oc1=O [Example 316] | – | significant inhibition | significant inhibitory activity
26 | CSc1ccc(C(c2c(O)c3cc(F)ccc3oc2=O)c2c(O)c3cc(F)ccc3oc2=O)cc1 [Example 317] | – | significant inhibition | significant inhibitory activity
27 | O=c1oc2ccc(F)cc2c(O)c1C(c1ccc(Cl)cc1)c1c(O)c2cc(F)ccc2oc1=O [Example 318] | – | significant inhibition | significant inhibitory activity
28 | CC(C)Oc1ccc(C(c2c(O)c3cc(F)ccc3oc2=O)c2c(O)c3cc(F)ccc3oc2=O)cc1 [Example 319] | – | significant inhibition | significant inhibitory activity
29 | Cc1ccc(C(c2c(O)c3cc(F)ccc3oc2=O)c2c(O)c3cc(F)ccc3oc2=O)cc1 [Example 320] | – | significant inhibition | significant inhibitory activity
30 | O=c1oc2ccc(F)cc2c(O)c1C(c1ccc(F)c(Br)c1)c1c(O)c2cc(F)ccc2oc1=O [Example 321] | – | significant inhibition | significant inhibitory activity
31 | COc1cc(C(c2c(O)c3cc(F)ccc3oc2=O)c2c(O)c3cc(F)ccc3oc2=O)ccc1OCc1ccccc1 [Example 324] | – | significant inhibition | significant inhibitory activity
32 | COc1ccc(C(c2c(O)c3cc(Br)ccc3oc2=O)c2c(O)c3cc(Br)ccc3oc2=O)cc1 [Example 326] | – | significant inhibition | significant inhibitory activity
33 | O=c1oc2ccc(Br)cc2c(O)c1C(c1ccc(Cl)cc1)c1c(O)c2cc(Br)ccc2oc1=O [Example 342] | – | significant inhibition | significant inhibitory activity
34 | O=c1oc2ccc(Br)cc2c(O)c1C(c1ccc2c(c1)OCO2)c1c(O)c2cc(Br)ccc2oc1=O [Example 343] | – | significant inhibition | significant inhibitory activity
35 | O=c1oc2ccc(Br)cc2c(O)c1C(c1ccccn1)c1c(O)c2cc(Br)ccc2oc1=O [Example 344] | – | significant inhibition | significant inhibitory activity
36 | Cc1ccc(C(c2c(O)c3cc(Br)ccc3oc2=O)c2c(O)c3cc(Br)ccc3oc2=O)cc1 [Example 346] | – | significant inhibition | significant inhibitory activity
